Assay results taken from publication PMC7353009, “Identification of Substrates of Cytoplasmic Peptidyl-Prolyl Cis/Trans Isomerases and Their Collective Essentiality in Escherichia Coli” (International Journal of Molecular Sciences, 2020).
These are yes or no findings as the source states them, for the method shown. In cells and extracts the contact can be indirect. Some entries that bind do so weakly or less than the wild type. Tags and fused reporters may be left off the sequences shown.

Protein sequences, listed by entry. Tags and fused reporters are not part of them.
UniProt P0AFG0: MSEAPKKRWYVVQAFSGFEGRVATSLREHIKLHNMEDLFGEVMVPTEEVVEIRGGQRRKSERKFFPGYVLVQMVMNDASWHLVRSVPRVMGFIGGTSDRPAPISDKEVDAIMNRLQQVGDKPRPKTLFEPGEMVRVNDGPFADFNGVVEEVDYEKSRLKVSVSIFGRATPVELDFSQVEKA
UniProt P0A7Z4: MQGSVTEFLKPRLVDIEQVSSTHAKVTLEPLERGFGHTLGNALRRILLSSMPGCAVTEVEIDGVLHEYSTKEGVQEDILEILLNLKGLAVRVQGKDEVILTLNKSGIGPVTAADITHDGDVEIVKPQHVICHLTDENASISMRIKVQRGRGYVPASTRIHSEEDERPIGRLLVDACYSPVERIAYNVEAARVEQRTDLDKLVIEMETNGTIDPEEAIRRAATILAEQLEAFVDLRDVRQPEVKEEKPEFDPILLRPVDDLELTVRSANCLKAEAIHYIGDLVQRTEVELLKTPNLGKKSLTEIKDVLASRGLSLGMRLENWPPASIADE

T1: PpiC::3xFLAG (wild type, chromosomal) (E. coli) (UniProt P0A9L5)
T1 sequence: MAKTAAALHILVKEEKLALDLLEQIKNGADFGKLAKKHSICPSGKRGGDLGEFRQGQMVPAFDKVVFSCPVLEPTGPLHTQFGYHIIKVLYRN

B1: YrdA (protein, UniProt P0A9W9 1-184)
chain: MSDVLRPYRDLFPQIGQRVMIDDSSVVIGDVRLADDVGIWPLVVIRGDVHYVQIGARTNIQDGSMLHVTHKSSYNPDGNPLTIGEDVTVGHKVMLHGCTIGNRVLVGMGSILLDGAIVEDDVMIGAGSLVPQNKRLESGYLYLGSPVKQIRPLSDEEKAGLRYSANNYVKWKDEYLDQGNQTQP
B2: alkyl hydroperoxide reductase subunit C (AhpC) (protein, UniProt P0AE08 1-187)
chain: MSLINTKIKPFKNQAFKNGEFIEITEKDTEGRWSVFFFYPADFTFVCPTELGDVADHYEELQKLGVDVYAVSTDTHFTHKAWHSSSETIAKIKYAMIGDPTGALTRNFDNMREDEGLADRATFVVDPQGIIQAIEVTAEGIGRDASDLLRKIKAAQYVASHPGEVCPAKWKEGEATLAPSLDLVGKI
B3: SeqA (protein, UniProt P0AFY8 1-181)
chain: MKTIEVDDELYSYIASHTKHIGESASDILRRMLKFSAASQPAAPVTKEVRVASPAIVEAKPVKTIKDKVRAMRELLLSDEYAEQKRAVNRFMLLLSTLYSLDAQAFAEATESLHGRTRVYFAADEQTLLKNGNQTKPKHVPGTPYWVITNTNTGRKCSMIEHIMQSMQFPAELIEKVCGTI

molecular target: T1, PpiC::3xFLAG (wild type, chromosomal) (E. coli); test: co-IP; cell extracts of strains with chromosomal single-copy 3xFLAG-tagged PpiC, ANTI-FLAG M2 gel, 12 h at 4 °C, native elution with 3xFLAG peptide, SDS-PAGE and silver staining

Row | binding | Molecule
1 | binds | NusG (from UniProt P0AFG0 1-181)
2 | binds | RpoA (from UniProt P0A7Z4 1-329)
3 | binds | B1
4 | binds | B2
5 | binds | B3
